Assay results as given in the supplement of paper PMC12067093, “Discovery and optimisation of a covalent ligand for TRIM25 and its application to targeted protein ubiquitination” (Chemical Science, 2025).
The list shows a part of the results.

compound: CC1Cc2ccccc2N1C(=O)C1CCCN(C1)C(=O)CCl (mixture of isomers) [TRIM25 ligand 11 (diastereomer mixture)]; test: probe-labelled cysteine peptide fold change vs DMSO (competition) (log2 fold change); higher = less target engagement (more negative = stronger competition); conditions: 10 µM; THP-1; incubation time: 4 h
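Further: competitive chemoproteomic profiling in live THP-1 cells with an iodoacetamide desthiobiotin (IA-DTB) probe, comparing probe-labelled peptide intensities in compound-treated cells against DMSO-treated controls.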

Target | probe-labelled cysteine peptide fold change
KDM1A_O60341_600_YTASGCEVIAVNTR (UniProt O60341) | 0.0657
KCTD18_Q6PI47_56_TDESGACVIDR (UniProt Q6PI47) | 0.192
KAT8_Q9H7Z6_416_GQHVICVTPK (UniProt Q9H7Z6) | 0.115
KDM2B_Q8NHM5_1278_DSLTEINLSDCNK (UniProt Q8NHM5) | 0.0507
KIF11_P52732_704_QCGNLTEDLK (UniProt P52732) | 0.0757
KEAP1_Q14145_273_CHSLTPNFLQMQLQK (UniProt Q14145) | 0.0276
IVD_P26440_355_ACDEGHCTAK (UniProt P26440) | -0.0206
ITPR1_Q14643_1439_IAYINFLNHCYVDTEVEMK (UniProt Q14643) | 0.113
KAT6A_Q92794_508_CPSVIEFGK (UniProt Q92794) | 0.143
KIF11_P52732_740_CENIQK (UniProt P52732) | -0.075
KDM1A_O60341_491_DLTALCK (UniProt O60341) | -0.0706
KBTBD11_O94819_537_QWSPCVAPLR (UniProt O94819) | 0.0697
KDM4A_O75164_917_FYQCEVVR (UniProt O75164) | 0.279
KDELC2_Q7Z4H8_497_DGMELVPQPEDSTAICQCHR (UniProt Q7Z4H8) | -0.244
JAK1_P23458_731_EGIDSECGPFIK (UniProt P23458) | -0.193
KARS_Q15046_434_AVECPPPR (UniProt Q15046) | 0.133
KIF1B_O60333_356_CNAVINEDPNAK (UniProt O60333) | -0.00143
ITPK1_Q13572_391+403_LGCNAGVSPSFQQHCVASLATK (UniProt Q13572) | 0.0751
KEAP1_Q14145_77_LSQQLCDVTLQVK (UniProt Q14145) | -0.0186

Target | probe-labelled cysteine peptide fold change
ITPK1_Q13572_185_VAHGTNSHEMAIVFNQEGLNAIQPPCVVQNFINHNAVLYK (UniProt Q13572) | 0.233
KDM2A_Q9Y2K7_477_CVPTGIEDEDALIADVK (UniProt Q9Y2K7) | -0.0307
KIF18B_Q86Y91_437_SGPPPEHLPSSPLPPHPPSQPCTPELPAGPR (UniProt Q86Y91) | -0.155
KIAA2013_Q8IYS2_185_DCVLLQEDFLAHR (UniProt Q8IYS2) | -0.0533
KDM4A_O75164_763_ASEDWMCSR (UniProt O75164) | 0.118
KHSRP_Q92945_436_CGLVIGR (UniProt Q92945) | -0.0539
ITPK1_Q13572_391_LGCNAGVSPSFQQHCVASLATK (UniProt Q13572) | 0.128
KDSR_Q06136_47_CIAIECYK (UniProt Q06136) | -0.18
ITPR1_Q14643_326_HLATGHYLAAEVDPDFEEECLEFQPSVDPDQDASR (UniProt Q14643) | -0.0727
KIF13B_Q9NQT8_773_ECEEDNPVIR (UniProt Q9NQT8) | 0.044
KDM3B_Q7LBC6_1386_EMVMGLNVLDPHTSHSWLCDGR (UniProt Q7LBC6) | -0.0411
KIF15_Q9NS87_1062_ILSEDIERDMLCEDLAHATEQLNMLTEASK (UniProt Q9NS87) | -0.0139
KARS_Q15046_427_ILDDICVAK (UniProt Q15046) | -0.0694
KIAA1958_Q8N8K9_246_PKPQTHAGPSCVGSAK (UniProt Q8N8K9) | -0.0886
JMJD4_Q9H9V9_188_DWHLCR (UniProt Q9H9V9) | 0.0684
ITPRID2_P28290_448_EPCAPLTIPSIR (UniProt P28290) | -0.0408
JMY_Q8N9B5_721_GAASPVLQEDHCDSLPSVLQVEEK (UniProt Q8N9B5) | -0.19
KIF1BP_Q96EK5_371_AVQFGTGELCDAISAVEEK (UniProt Q96EK5) | 0.0163

same assay, conditions: 50 µM; THP-1; incubation time: 4 h

Target | probe-labelled cysteine peptide fold change
KDM1A_O60341_600_YTASGCEVIAVNTR (UniProt O60341) | 0.139
KCTD18_Q6PI47_56_TDESGACVIDR (UniProt Q6PI47) | 0.0972
KAT8_Q9H7Z6_416_GQHVICVTPK (UniProt Q9H7Z6) | 0.085
KDM2B_Q8NHM5_1278_DSLTEINLSDCNK (UniProt Q8NHM5) | 0.099
KIF11_P52732_704_QCGNLTEDLK (UniProt P52732) | 0.0473
KEAP1_Q14145_273_CHSLTPNFLQMQLQK (UniProt Q14145) | 0.351
IVD_P26440_355_ACDEGHCTAK (UniProt P26440) | 0.133
ITPR1_Q14643_1439_IAYINFLNHCYVDTEVEMK (UniProt Q14643) | 0.125
KAT6A_Q92794_508_CPSVIEFGK (UniProt Q92794) | 0.0762
KIF11_P52732_740_CENIQK (UniProt P52732) | -0.00613
KDM1A_O60341_491_DLTALCK (UniProt O60341) | 0.259
KBTBD11_O94819_537_QWSPCVAPLR (UniProt O94819) | 0.14
KDM4A_O75164_917_FYQCEVVR (UniProt O75164) | 0.422
KDELC2_Q7Z4H8_497_DGMELVPQPEDSTAICQCHR (UniProt Q7Z4H8) | -0.17
JAK1_P23458_731_EGIDSECGPFIK (UniProt P23458) | -0.156
KARS_Q15046_434_AVECPPPR (UniProt Q15046) | 0.0775
KIF1B_O60333_356_CNAVINEDPNAK (UniProt O60333) | -0.0966
ITPK1_Q13572_391+403_LGCNAGVSPSFQQHCVASLATK (UniProt Q13572) | -0.372
KEAP1_Q14145_77_LSQQLCDVTLQVK (UniProt Q14145) | 0.206

Target | probe-labelled cysteine peptide fold change
ITPK1_Q13572_185_VAHGTNSHEMAIVFNQEGLNAIQPPCVVQNFINHNAVLYK (UniProt Q13572) | 0.113
KDM2A_Q9Y2K7_477_CVPTGIEDEDALIADVK (UniProt Q9Y2K7) | -0.0701
KIF18B_Q86Y91_437_SGPPPEHLPSSPLPPHPPSQPCTPELPAGPR (UniProt Q86Y91) | -0.207
KIAA2013_Q8IYS2_185_DCVLLQEDFLAHR (UniProt Q8IYS2) | 0.177
KDM4A_O75164_763_ASEDWMCSR (UniProt O75164) | 0.182
KHSRP_Q92945_436_CGLVIGR (UniProt Q92945) | 0.0432
ITPK1_Q13572_391_LGCNAGVSPSFQQHCVASLATK (UniProt Q13572) | -0.358
KDSR_Q06136_47_CIAIECYK (UniProt Q06136) | 0.239
ITPR1_Q14643_326_HLATGHYLAAEVDPDFEEECLEFQPSVDPDQDASR (UniProt Q14643) | -0.462
KIF13B_Q9NQT8_773_ECEEDNPVIR (UniProt Q9NQT8) | -0.0606
KDM3B_Q7LBC6_1386_EMVMGLNVLDPHTSHSWLCDGR (UniProt Q7LBC6) | -0.127
KIF15_Q9NS87_1062_ILSEDIERDMLCEDLAHATEQLNMLTEASK (UniProt Q9NS87) | -0.136
KARS_Q15046_427_ILDDICVAK (UniProt Q15046) | -0.146
KIAA1958_Q8N8K9_246_PKPQTHAGPSCVGSAK (UniProt Q8N8K9) | -0.293
JMJD4_Q9H9V9_188_DWHLCR (UniProt Q9H9V9) | 0.068
ITPRID2_P28290_448_EPCAPLTIPSIR (UniProt P28290) | -0.0961
JMY_Q8N9B5_721_GAASPVLQEDHCDSLPSVLQVEEK (UniProt Q8N9B5) | -0.041
KIF1BP_Q96EK5_371_AVQFGTGELCDAISAVEEK (UniProt Q96EK5) | -0.0878
